# ± gives the standard deviation. This is a selection; strong and weak results do not stand in their true shares. Many entries were measured with a wide error.
# System: EfPiwi piRISC loaded with piRNA #1 (26 nt)
# Assay: pre-steady-state target cleavage rate (min^-1); guide: piRNA #1 5'p-UGAGGUAGUAGGUUGUAUAGUAUCCA; MIWI and MILI are mouse PIWI proteins and EfPiwi is from a freshwater sponge; tags in brackets are library labels; higher = faster piRNA-guided slicing of the target
# Conditions: auxiliary factor: 500 nM Ephydatia muelleri Gtsf1
# In short: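 In Cleave-'n-Seq, a transcribed, DNA-blocked target RNA library (0.1 nM) was combined with 1 nM active affinity-purified piRISC bearing one synthetic guide, with or without 500 nM GTSF1 partner protein. Reactions ran in HEPES–potassium acetate buffer at 33 °C for 0–8 or 0–960 min. Uncleaved targets were sequenced and normalised to depth and to weakly complementary targets, three trials were pooled, and k3 was capped at 0.0001 min^-1. The pre-steady-state cleavage rate was obtained by fitting a burst-and-steady-state model.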
row,Sequence,pre-steady-state target cleavage rate
1,GGAGACCUAACUAAACAUCCUACUACCUCA,0.00285 ± 0.0043
2,GGAGACGAUAGUAUACAACCUACUUCCUCA,0.00235 ± 0.0025
3,GGAGUGGAUACUAUACACCUACUACCUCA,0.157 ± 0.056
4,GGAGUCCUUACUAUACAACCUACUACCUCA,0.0555 ± 0.021
5,GGAGACCUAUGAUAUGUUCUCUACUACCUCA,0.000258 ± 0.0095
6,GGAGUGGAUACUAUACAACCUACUGCCUCA,0.00835 ± 0.0028
7,GGAGUCGAUACUAUACAACCUACUACCACA,0.0037 ± 0.0015
8,GGAGACGAUACUAUACAUCCUUCUACCUCA,0.00356 ± 0.0021
9,GGAGACCUAUGAAUACAACCUACUAACUCA,0.000765 ± 0.0066
10,GGAGAGGAUGCUAUACAACCUACUACCUCA,0.00971 ± 0.006
11,GGAGACCUUACUAUACUACCUACUUCCUCA,0.000522 ± 0.0042
12,GGAGACCUUACAUUACAACCUACUACCUCA,0.00334 ± 0.0033
13,GGAGACCUAUGAUAUGAACUACUACCUCA,0.000221 ± 0.0087
14,GGAGACCUAACUAUUCAACCUACAACCUCA,0.000946 ± 0.0084
15,GGAGACCUAUCUAAACAUCCUACUACCUCA,0.00214 ± 0.0039
16,GGAGACCAUACAAUACAACCAACUACCUCA,0.00183 ± 0.0057
17,GGAGAGGAUAGUAAACAACCUACUACCUCA,0.00286 ± 0.0037
18,GGAGACCUAUCUAAUACAACCUACUACCUCA,0.00579 ± 0.004
19,GGAGACCAUACUUUAGAACCUACUACCUCA,0.00256 ± 0.0031
20,GGAGACCAUACUAUACAACGUACUACCUGA,0.00457 ± 0.0027
21,GGAGUGGAUACUAUACAACCUACUACCUCU [g2:g26:cont:t1U],1.05 ± 0.27
22,GGAGACCUAUGUAUACAAGCUACUUCCUCA,0.00121 ± 0.0044
23,GGAGACCUUACAAUACAACCUACUACCACA,0.00133 ± 0.0099
24,GGAGACCUAUGAAUACUACCUACAACCUCA,0.000209 ± 0.022

# Excerpt, entries 9 to 15
row,Sequence,pre-steady-state target cleavage rate
9,GGAGACCUAUGAAUACAACCUACUAACUCA,0.000765 ± 0.0066
10,GGAGAGGAUGCUAUACAACCUACUACCUCA,0.00971 ± 0.006
11,GGAGACCUUACUAUACUACCUACUUCCUCA,0.000522 ± 0.0042
12,GGAGACCUUACAUUACAACCUACUACCUCA,0.00334 ± 0.0033
13,GGAGACCUAUGAUAUGAACUACUACCUCA,0.000221 ± 0.0087
14,GGAGACCUAACUAUUCAACCUACAACCUCA,0.000946 ± 0.0084
15,GGAGACCUAUCUAAACAUCCUACUACCUCA,0.00214 ± 0.0039

# Source: the supplement of paper PMC10338343
